Experimental data: US20250127887A1 (priority 2021, published 2025)
Plain letter strings leave the end groups untold.

Assay: general procedure: Fmoc solid-phase peptide synthesis
Conditions: for conjugation yield / final HPLC purity / crude HPLC purity: conjugation step; for outcome: whole synthesis

Row | Substance | conjugation yield [%] | final HPLC purity (254 nm) [% AUC at 254 nm] | further results
1 | (COOH-ethyl)4-PEG24-PEG12-(N3-DBCO)-Ahx-W5 | 62.3 | – | final HPLC purity (AUC at 220 nm): 94.6%
2 | (CPNE1 LP)4-2323-(N3-DBCO)-Ahx-2B3W2 | – | – | final HPLC purity (AUC at 220 nm): >90%
3 | (CPNE1 min)4-2323-(N3-DBCO)-Ahx-2B3W2 or (SSPYSLHYL)4-2323-(N3-DBCO)-Ahx-2B3W2 | – | – | final HPLC purity (AUC at 220 nm): >90%
4 | (Mannose-PEG3)4-PEG24-PEG12-(N3-DBCO)-Ahx-W5 | 47.9 | – | final HPLC purity (AUC at 220 nm): 96.2%
5 | (Mannose-PEG3)4-PEG24-PEG24-Ahx-W5 | 40.9 | – | final HPLC purity (AUC at 220 nm): 98.2%
6 | (NH2-ethyl)2-PEG24-(N3-DBCO)-Ahx-2B3W2 | 38.4 | – | crude HPLC purity (220 nm): 89.6% AUC at 220 nm
7 | DBCO-2-Amino-1,3-bis(carboxylethoxy)propane(Ahx-F′ 10)2 | 26.8 | 83.4 | –
8 | DBCO-2-Amino-1,3-bis(carboxylethoxy)propane(Ahx-W5)2 | 30.8 | >95 | –
9 | DBCO-(Glu(2B)1(Trp)4) | 55.4 | >95 | –
10 | DBCO-(Glu(2B)2(Trp)3) | 62.5 | >95 | –
11 | DBCO-(Glu(2B)2(Trp)8) | 16.3 | >95 | –
12 | DBCO-(Glu(2B)3(Trp)2) | 50.6 | >95 | –
13 | DBCO-(Glu(2B)4(Trp)6) | – | >95 | –
14 | DBCO-(Glu(2B)5(Gly)10) | 36.2 | >95 | –
15 | DBCO-(Glu(2B)5(Trp)10(Gly)15) | 26 | – | –
16 | DBCO-(Glu(2B)6(Trp)4) | – | >95 | –
17 | DBCO-(Glu(2BXy)1(Trp)4) | 73.3 | >95 | –
18 | DBCO-(Glu(2BXy)3(Trp)2) | 38.1 | – | –
19 | DBCO-Ahx-(F′)20 | 20.5 | 94.4 | –
20 | DBCO-Ahx-(Glu)3(Trp)2 | – | – | final HPLC purity (220 nm): >95% AUC at 220 nm

Row | Substance | conjugation yield [%] | final HPLC purity (254 nm) [% AUC at 254 nm] | further results
21 | DBCO-Ahx-F′10 | 50.6 | >95 | –
22 | DBCO-Ahx-F′ 5 | 41.5 | >95 | –
23 | DBCO-Ahx-Glu(2B)3(Trp)2 | 60 | – | final HPLC purity (220 nm): >95% AUC at 220 nm
24 | DBCO-Ahx-W5 | 71.9 | 92.6 | –
25 | FFFFFFFFFF | – | – | outcome: N
26 | FWFWFWFWFW | – | – | outcome: N
27 | K8-PEG24-(N3-DBCO)-Ahx-W5 | – | – | crude HPLC purity (254 nm): 90.2% AUC at 254 nm
28 | LLLLLLLLLL | – | – | outcome: N
29 | TT-PEG12-(N3-DBCO)-Ahx-W5 | – | – | crude HPLC purity (AUC at 220 nm): 83%
30 | TT-PEG24-(N3-DBCO)-Ahx-W5 | – | – | crude HPLC purity (AUC at 220 nm): 84%
31 | WWWWWWWWWW | – | – | outcome: Crude
32 | {COOH-PEG24}4-{propargyl}4K2K{Lys(N3)}-DBCO-2-Amino-1,3-bis(carboxylethoxy)propane(2BXy)4 | – | – | final HPLC purity (254 nm, run 1): 98.0% AUC at 254 nm; final HPLC purity (254 nm, run 2): 90.4% AUC at 254 nm; conjugation yield (run 1): 70.3%; conjugation yield (run 2): 71.0%
33 | {COOH-PEG25}4-{NH2}4K2K{Lys(N3)}-DBCO-Ahx-W5 | – | – | crude HPLC purity (AUC at 220 nm): 94.3%
34 | {NH2—PEG24}4-{propargyl}4K2K{Lys(N3)}-DBCO-2-Amino-1,3-bis(carboxylethoxy)propane(2BXy)4 | – | – | final HPLC purity (254 nm, run 1): 95.5% AUC at 254 nm; final HPLC purity (254 nm, run 2): 67.7% AUC at 254 nm; conjugation yield (run 1): 58.4%; conjugation yield (run 2): 68.0%
35 | {OH-PEG24}4-{propargyl}4K2K{Lys(N3)}-DBCO-2- Amino 1,3-bis(carboxylethoxy)propane(2BXy)4 | 70.5 | 99.3 | –
36 | {OH-PEG24}4-{propargyl}4K2K{Lys(N3)}-DBCO-2-Amino-1,3-bis(carboxylethoxy)propane(Doxorubucin)4 | 69.3 | 95.8 | –
37 | {OH-PEG24}4-{propargyl}4K2K{Lys(N3)}-DBCO-Ahx-(F′)10 | 64.6 | 94.1 | –
38 | {propargyl}4K2K{Lys(N3)}-DBCO-2-Amino-1,3-bis(carboxylethoxy)propane(2BXy)4 | 47.5 | 98.6 | –
39 | {propargyl}4K2K{Lys(N3)}-DBCO-2-Amino-1,3-bis(carboxylethoxy)propane(Doxorubicin)4 | 40.9 | 91.3 | –
40 | {propargyl}4K2K{Lys(N3)}-DBCO-Ahx-(F′)10 | – | – | crude HPLC purity (254 nm): 96.1% AUC at 254 nm
